Data: PMC10904810

Target: T1, Flag-tagged RB1 (UniProt P06400)
T1 sequence: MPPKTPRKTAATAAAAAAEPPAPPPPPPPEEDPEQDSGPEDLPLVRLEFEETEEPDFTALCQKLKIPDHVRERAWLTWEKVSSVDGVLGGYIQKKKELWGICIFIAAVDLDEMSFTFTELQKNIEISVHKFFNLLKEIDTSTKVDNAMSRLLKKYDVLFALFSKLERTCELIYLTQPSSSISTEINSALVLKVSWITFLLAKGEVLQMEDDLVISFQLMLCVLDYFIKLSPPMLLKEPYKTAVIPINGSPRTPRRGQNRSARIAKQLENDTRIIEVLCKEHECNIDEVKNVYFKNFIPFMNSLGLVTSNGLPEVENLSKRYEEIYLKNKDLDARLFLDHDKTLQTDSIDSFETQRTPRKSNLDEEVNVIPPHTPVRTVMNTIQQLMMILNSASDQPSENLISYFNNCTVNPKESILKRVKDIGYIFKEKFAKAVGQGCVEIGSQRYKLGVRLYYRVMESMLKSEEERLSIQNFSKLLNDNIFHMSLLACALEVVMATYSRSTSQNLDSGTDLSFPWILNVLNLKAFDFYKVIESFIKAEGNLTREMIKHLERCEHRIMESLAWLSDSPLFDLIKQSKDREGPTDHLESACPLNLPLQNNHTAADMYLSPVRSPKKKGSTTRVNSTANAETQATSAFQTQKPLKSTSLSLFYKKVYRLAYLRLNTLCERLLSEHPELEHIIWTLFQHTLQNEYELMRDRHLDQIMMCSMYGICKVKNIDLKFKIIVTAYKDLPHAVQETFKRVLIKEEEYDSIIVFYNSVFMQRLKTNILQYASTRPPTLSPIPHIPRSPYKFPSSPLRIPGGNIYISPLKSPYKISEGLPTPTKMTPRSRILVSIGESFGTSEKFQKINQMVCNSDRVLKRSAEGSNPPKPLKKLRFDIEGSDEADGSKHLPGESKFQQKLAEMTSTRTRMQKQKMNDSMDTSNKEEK
Assay: affinity purification with mass spectrometry; 293T cells transfected with Flag-tagged RB1 with or without MYC, 48 h; lysed with IP buffer, Flag-conjugated agarose beads, eluted with 2% SDS, LC-MS

binding: binds
B1: KLHL42 found by LC-MS in the Flag-RB1 immunoprecipitate (protein, UniProt Q9P2K6 1-505)
chain: MSAEEMVQIRLEDRCYPVSKRKLIEQSDYFRALYRSGMREALSQEAGGPEVQQLRGLSAPGLRLVLDFINAGGAREGWLLGPRGEKGGGVDEDEEMDEVSLLSELVEAASFLQVTSLLQLLLSQVRLNNCLEMYRLAQVYGLPDLQEACLRFMVVHFHEVLCKPQFHLLGSPPQAPGDVSLKQRLREARMTGTPVLVALGDFLGGPLAPHPYQGEPPSMLRYEEMTERWFPLANNLPPDLVNVRGYGSAILDNYLFIVGGYRITSQEISAAHSYNPSTNEWLQVASMNQKRSNFKLVAVNSKLYAIGGQAVSNVECYNPEQDAWNFVAPLPNPLAEFSACECKGKIYVIGGYTTRDRNMNILQYCPSSDMWTLFETCDVHIRKQQMVSVEETIYIVGGCLHELGPNRRSSQSEDMLTVQSYNTVTRQWLYLKENTSKSGLNLTCALHNDGIYIMSRDVTLSTSLEHRVFLKYNIFSDSWEAFRRFPAFGHNLLVSSLYLPNKAET

No constants are given. Whether binding was seen depends on the method and setting. Binding seen in cells or lysates may run through a third protein. These calls come from enrichment with a bait or labelling near it, and not all partners need be listed. Where a sequence is shown, tags or fusion partners need not be part of it.
